{"source": "PubChem BioAssay AID652259 – Drosophila RNAi Screening Center, 2013", "aim": "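Identify new Wingless signalling regulators in fly cells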 (primary screen)", "system": "Drosophila clone 8 imaginal disc epithelial cells", "knock-down reagent": "long dsRNA against Drosophila genes", "challenge": "pathway stimulated by co-transfected Wingless expression plasmid", "measured": "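Firefly luciferase from a tcf-site Wingless reporter, measured alongside co-transfected Renilla luciferase that tracks transfection; pathway stimulated by a Wingless plasmid; the firefly-to-Renilla ratio is not deposited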", "direction": "firefly reporter light: higher = more Wg reporter light, before normalisation; Renilla control light: higher = more transfected or surviving cells", "call rule": "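Strong candidates differ from their plate mean by at least two out of four per-plate statistical tests; weak candidates meet just one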", "meaning of the calls": "active = candidate regulator (raises or lowers reporter); inactive = not a candidate", "note": "The deposit covers about 22,000 reagents; below is a random part of those with a known target gene and a result. Over the whole deposit, 233 (1.1%) were called active. 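Light values are raw, unnormalised plate reads; the ratio scores behind the reporter calls were not deposited.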 Unmarked entries are inactive. The record does not give: the amount of reagent, the time to read-out, the dose of the treatment."}
{"target": "Pif1A", "amplicon": "DRSC12708", "firefly reporter light, replicate 1": 5161, "Renilla control light, replicate 1": 1282}
{"target": "Pif1A", "amplicon": "DRSC14383", "firefly reporter light, replicate 1": 17962, "Renilla control light, replicate 1": 3616}
{"target": "Pros28.2 (retired record)", "amplicon": "DRSC16800", "firefly reporter light, replicate 1": 11888, "Renilla control light, replicate 1": 4368}
{"target": "sick", "amplicon": "DRSC02090", "firefly reporter light, replicate 1": 3504, "firefly reporter light, replicate 2": 6698, "Renilla control light, replicate 1": 578, "Renilla control light, replicate 2": 2512}
{"target": "sick", "amplicon": "DRSC02300", "firefly reporter light, replicate 1": 2903, "firefly reporter light, replicate 2": 5509, "Renilla control light, replicate 1": 597, "Renilla control light, replicate 2": 2585}
{"target": "sick", "amplicon": "DRSC02301", "firefly reporter light, replicate 1": 3153, "firefly reporter light, replicate 2": 5360, "Renilla control light, replicate 1": 499, "Renilla control light, replicate 2": 2841}
{"target": "sick", "amplicon": "DRSC02302", "firefly reporter light, replicate 1": 2121, "firefly reporter light, replicate 2": 10249, "Renilla control light, replicate 1": 411, "Renilla control light, replicate 2": 3440}
{"target": "sick", "amplicon": "DRSC02303", "firefly reporter light, replicate 1": 2512, "firefly reporter light, replicate 2": 3987, "Renilla control light, replicate 1": 393, "Renilla control light, replicate 2": 2439}
{"target": "sick", "amplicon": "DRSC02306", "firefly reporter light, replicate 1": 2461, "firefly reporter light, replicate 2": 7772, "Renilla control light, replicate 1": 425, "Renilla control light, replicate 2": 4042}
{"target": "CG18745", "amplicon": "DRSC15382", "firefly reporter light, replicate 1": 12171, "Renilla control light, replicate 1": 4186}
{"target": "CG13377", "amplicon": "DRSC18622", "firefly reporter light, replicate 1": 18545, "Renilla control light, replicate 1": 13376}
{"target": "CG31869", "amplicon": "DRSC02582", "firefly reporter light, replicate 1": 2020, "firefly reporter light, replicate 2": 4688, "Renilla control light, replicate 1": 871, "Renilla control light, replicate 2": 2837}
{"target": "CG31869", "amplicon": "DRSC02674", "firefly reporter light, replicate 1": 3824, "firefly reporter light, replicate 2": 7693, "Renilla control light, replicate 1": 1458, "Renilla control light, replicate 2": 3506}
{"target": "CG12898", "amplicon": "DRSC06213", "firefly reporter light, replicate 1": 3712, "firefly reporter light, replicate 2": 5840, "Renilla control light, replicate 1": 656, "Renilla control light, replicate 2": 3508}
{"target": "CG30116", "amplicon": "DRSC05935", "firefly reporter light, replicate 1": 16627, "Renilla control light, replicate 1": 4026}
{"target": "CG30116", "amplicon": "DRSC06685", "firefly reporter light, replicate 1": 6010, "Renilla control light, replicate 1": 2449}
{"target": "Or94a", "amplicon": "DRSC16772", "firefly reporter light, replicate 1": 13738, "Renilla control light, replicate 1": 10800}
{"target": "CG33178", "amplicon": "DRSC19950", "firefly reporter light, replicate 1": 23825, "Renilla control light, replicate 1": 11076}
{"target": "CG14104", "amplicon": "DRSC10106", "reporter change call, replicate 1": "Wg reporter activity lowered", "firefly reporter light, replicate 1": 15344, "Renilla control light, replicate 1": 5536}
{"target": "Sgf11", "amplicon": "DRSC09987", "firefly reporter light, replicate 1": 7164, "Renilla control light, replicate 1": 2918}
{"target": "atms", "amplicon": "DRSC12310", "firefly reporter light, replicate 1": 8886, "Renilla control light, replicate 1": 1434}

4 neighbouring reagents already listed:
{"target": "Pif1A", "amplicon": "DRSC14383", "firefly reporter light, replicate 1": 17962, "Renilla control light, replicate 1": 3616}
{"target": "Pros28.2 (retired record)", "amplicon": "DRSC16800", "firefly reporter light, replicate 1": 11888, "Renilla control light, replicate 1": 4368}
{"target": "sick", "amplicon": "DRSC02090", "firefly reporter light, replicate 1": 3504, "firefly reporter light, replicate 2": 6698, "Renilla control light, replicate 1": 578, "Renilla control light, replicate 2": 2512}
{"target": "sick", "amplicon": "DRSC02300", "firefly reporter light, replicate 1": 2903, "firefly reporter light, replicate 2": 5509, "Renilla control light, replicate 1": 597, "Renilla control light, replicate 2": 2585}

The listing continues:
{"target": "CG14626", "amplicon": "DRSC18631", "firefly reporter light, replicate 1": 16045, "Renilla control light, replicate 1": 11290}
{"target": "Cpr62Ba", "amplicon": "DRSC08403", "firefly reporter light, replicate 1": 5613, "Renilla control light, replicate 1": 2435}
{"target": "CG10874", "amplicon": "DRSC00297", "firefly reporter light, replicate 1": 2988, "firefly reporter light, replicate 2": 7824, "Renilla control light, replicate 1": 1158, "Renilla control light, replicate 2": 2397}
{"target": "Or33b", "amplicon": "DRSC03387", "firefly reporter light, replicate 1": 2314, "firefly reporter light, replicate 2": 6787, "Renilla control light, replicate 1": 660, "Renilla control light, replicate 2": 3658}
{"target": "CG8539", "amplicon": "DRSC10988", "firefly reporter light, replicate 1": 10288, "Renilla control light, replicate 1": 3990}
{"target": "CG8539", "amplicon": "DRSC21798", "firefly reporter light, replicate 1": 2.46e5, "firefly reporter light, replicate 2": 4.12e5, "Renilla control light, replicate 1": 1.19e5, "Renilla control light, replicate 2": 1.73e5}
{"target": "CG31848", "amplicon": "DRSC01309", "firefly reporter light, replicate 1": 15413, "Renilla control light, replicate 1": 8861}
{"target": "CHES-1-like", "amplicon": "DRSC18447", "firefly reporter light, replicate 1": 16129, "Renilla control light, replicate 1": 9155}
{"target": "CG4950", "amplicon": "DRSC10463", "firefly reporter light, replicate 1": 7713, "Renilla control light, replicate 1": 3773}
{"target": "CG32191", "amplicon": "DRSC10522", "firefly reporter light, replicate 1": 5970, "Renilla control light, replicate 1": 2720}
{"target": "eIF2D", "amplicon": "DRSC13916", "firefly reporter light, replicate 1": 3400, "Renilla control light, replicate 1": 1842}
